In the experiment the target is C-terminal FLAG-tagged GTPBP8 (human) (UniProt Q8N3Z3). As to the kind of experiment: affinity purification with mass spectrometry; FLAG-IP (Sigma-Aldrich kit) of GTPBP8::FLAG from mitochondrial lysate of HEK293 induced with 50 ng/ml doxycycline for 48 h; buffers with 5 mM MgCl2; elution with 3X FLAG peptides; LFQ mass spectrometry against mtLuc::FLAG control; thresholds log2FC > 3 and adj. p-value < 0.05.

Protein sequences, listed by entry. Tags and fused reporters are not part of them. Lines headed by an entry give the natural chain unless they say otherwise; changes in a name come on top.
UniProt Q8N3Z3: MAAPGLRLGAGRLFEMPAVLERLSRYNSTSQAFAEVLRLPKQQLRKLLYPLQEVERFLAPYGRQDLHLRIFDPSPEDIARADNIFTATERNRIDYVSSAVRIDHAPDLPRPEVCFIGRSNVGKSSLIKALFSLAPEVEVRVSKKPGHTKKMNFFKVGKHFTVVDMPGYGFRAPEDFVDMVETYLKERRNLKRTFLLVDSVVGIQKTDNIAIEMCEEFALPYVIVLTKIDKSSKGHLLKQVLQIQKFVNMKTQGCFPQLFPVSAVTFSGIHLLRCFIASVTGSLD

These are yes or no findings as the source states them, for the method shown. Binding seen in cells or lysates may run through a third protein. Here binding means that the protein was enriched with, or labelled near, the bait; the list need not be complete.

1 molecule from PMC11229512 can be followed below.

B1: DDX28 (protein, UniProt Q9NUL7 1-540)
chain: MALTRPVRLFSLVTRLLLAPRRGLTVRSPDEPLPVVRIPVALQRQLEQRQSRRRNLPRPVLVRPGPLLVSARRPELNQPARLTLGRWERAPLASQGWKSRRARRDHFSIERAQQEAPAVRKLSSKGSFADLGLEPRVLHALQEAAPEVVQPTTVQSSTIPSLLRGRHVVCAAETGSGKTLSYLLPLLQRLLGQPSLDSLPIPAPRGLVLVPSRELAQQVRAVAQPLGRSLGLLVRDLEGGHGMRRIRLQLSRQPSADVLVATPGALWKALKSRLISLEQLSFLVLDEADTLLDESFLELVDYILEKSHIAEGPADLEDPFNPKAQLVLVGATFPEGVGQLLNKVASPDAVTTITSSKLHCIMPHVKQTFLRLKGADKVAELVHILKHRDRAERTGPSGTVLVFCNSSSTVNWLGYILDDHKIQHLRLQGQMPALMRVGIFQSFQKSSRDILLCTDIASRGLDSTGVELVVNYDFPPTLQDYIHRAGRVGRVGSEVPGTVISFVTHPWDVSLVQKIELAARRRRSLPGLASSVKEPLPQAT
In the case of B1, the binding result is recorded as “binds”.
